Reference: the supplement of paper PMC4635364
Where a name gives a salt, the structure may show the parent alone. This is one part of the list. Repeats in this data set agree poorly, so a single value says little.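 Human fetal ventral-midbrain neural progenitor line ReNCell VM, differentiated without mitogens. Images stained for doublecortin (early neurons) or tyrosine hydroxylase (dopaminergic neurons) were scored by blinded raters against untreated wells (0 = no change). Repeats and both raters were averaged, and compounds averaging 2 or higher were picked as hits for retesting.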

Assays:
ReNCell VM [1] = assay: neuronal differentiation score (DCX+ cell fraction vs untreated, manual image score) (score (-3 to 3)); higher = more neuronal differentiation; conditions: 2 uM, 2 weeks
ReNCell VM [2] = assay: dopaminergic neuron differentiation score (TH+ cell fraction vs untreated, manual image score) (score (0 to 3)); higher = more TH+ dopaminergic neuron differentiation; conditions: 2 uM, 4 weeks, BDNF 10 ng/ml + GDNF 10 ng/ml

## O=C(CCBr)N1CCN(C(=O)CCBr)CC1
ReNCell VM [1]; library: Spectrum
  neuronal differentiation score: inactive: 0
ReNCell VM [2]; library: Spectrum
  dopaminergic neuron differentiation score: inactive: 0

## COc1ccc2c(c1OC)C(=O)O[C@@H]2[C@H]1c2c(cc3c(c2OC)OCO3)CCN1C [Noscapine hydrchloride]
ReNCell VM [1]; library: LOPAC
  neuronal differentiation score: inactive: 0
ReNCell VM [2]; library: LOPAC
  dopaminergic neuron differentiation score: inactive: 0

## CCCc1cc(C(N)=S)ccn1
ReNCell VM [1]; library: Spectrum
  neuronal differentiation score: inactive: 0
ReNCell VM [2]; library: Spectrum
  dopaminergic neuron differentiation score: inactive: 0

## CC(C)(c1ccc(O)cc1)c1ccc(O)cc1
ReNCell VM [1]; library: Spectrum
  neuronal differentiation score: inactive: 0
ReNCell VM [2]; library: Spectrum
  dopaminergic neuron differentiation score: inactive: 0

## COc1ccc(-c2cc(C(F)F)nn2-c2ccc(S(N)(=O)=O)cc2)cc1F
ReNCell VM [1]; library: Spectrum
  neuronal differentiation score: inactive: -1
ReNCell VM [2]; library: Spectrum
  dopaminergic neuron differentiation score: inactive: 0

## OC(c1cc(C(F)(F)F)nc2c(C(F)(F)F)cccc12)C1CCCCN1 (stereo unspecified) [Mefloquine hydrochloride]
ReNCell VM [1]; library: Prestwick
  neuronal differentiation score: inactive: 0
ReNCell VM [2]; library: Prestwick
  dopaminergic neuron differentiation score: inactive: 0

## O=C1NN(C(=O)Nc2ccc(Br)cc2)[C@@H](c2ccccc2)[C@@H]1c1ccccc1
ReNCell VM [1]; library: Tocriscreen
  neuronal differentiation score: inactive: 0
ReNCell VM [2]; library: Tocriscreen
  dopaminergic neuron differentiation score: inactive: 0

## CN(C)CCOC(c1ccc(Cl)cc1)c1ccccn1 (stereo unspecified) [Carbinoxamine maleate salt]
ReNCell VM [1]; library: Prestwick
  neuronal differentiation score: inactive: 0
ReNCell VM [2]; library: Prestwick
  dopaminergic neuron differentiation score: inactive: 0

## CCn1cc(C(=O)O)c(=O)c2cnc(N3CCNCC3)nc21
ReNCell VM [1]; library: Spectrum
  neuronal differentiation score: inactive: 0
ReNCell VM [2]; library: Spectrum
  dopaminergic neuron differentiation score: inactive: 1

## O=C(O)Cc1ccc(O)c(O)c1 [3,4-Dihydroxyphenylacetic acid]
ReNCell VM [1]; library: LOPAC
  neuronal differentiation score: inactive: 0
ReNCell VM [2]; library: LOPAC
  dopaminergic neuron differentiation score: inactive: 0

## C=C1CC[C@H](O)C/C1=C/C=C1\CCC[C@]2(C)[C@@H]([C@H](C)CCCC(C)C)CC[C@@H]12
ReNCell VM [1]; library: Spectrum
  neuronal differentiation score: inactive: 0
ReNCell VM [2]; library: Spectrum
  dopaminergic neuron differentiation score: inactive: 0

## Oc1ccc(Cl)c2c1CCC2
ReNCell VM [1]; library: Spectrum
  neuronal differentiation score: inactive: 0
ReNCell VM [2]; library: Spectrum
  dopaminergic neuron differentiation score: inactive: 0

## [Cl-].[Li+] [Lithium Chloride]
ReNCell VM [1]; library: LOPAC
  neuronal differentiation score: inactive: 0
ReNCell VM [2]; library: LOPAC
  dopaminergic neuron differentiation score: inactive: 0

## C[C@H](CCC(=O)O)[C@H]1CC[C@H]2[C@@H]3[C@@H](O)C[C@@H]4C[C@H](O)CC[C@]4(C)[C@H]3CC[C@]12C
ReNCell VM [1]; library: Spectrum
  neuronal differentiation score: inactive: 0
ReNCell VM [2]; library: Spectrum
  dopaminergic neuron differentiation score: inactive: 0

## Cc1onc(-c2c(Cl)cccc2Cl)c1C(=O)N[C@@H]1C(=O)N2[C@@H]1SC(C)(C)[C@@H]2C(=O)O [Dicloxacillin sodium salt hydrate]
ReNCell VM [1]; library: Prestwick
  neuronal differentiation score: inactive: 0
ReNCell VM [2]; library: Prestwick
  dopaminergic neuron differentiation score: inactive: 0

## C[C@@H]1C[C@H]2[C@@H]3CCC4=CC(=O)C=C[C@]4(C)[C@@]3(F)[C@@H](O)C[C@]2(C)[C@@]1(O)C(=O)CO [Dexamethasone]
ReNCell VM [1]; library: Tocriscreen
  neuronal differentiation score: inactive: -1
ReNCell VM [2]; library: Tocriscreen
  dopaminergic neuron differentiation score: inactive: 0

## CC(=O)OCC(=O)[C@@]12OC3(CCCC3)O[C@@H]1C[C@H]1[C@@H]3CCC4=CC(=O)C=C[C@]4(C)[C@@]3(F)[C@@H](O)C[C@@]12C
ReNCell VM [1]; library: Spectrum
  neuronal differentiation score: inactive: 1
ReNCell VM [2]; library: Spectrum
  dopaminergic neuron differentiation score: inactive: 0

## CCOC(=O)OC(C)OC(=O)[C@@H]1N2C(=O)[C@@H](NC(=O)[C@H](N)c3ccccc3)[C@H]2SC1(C)C (stereo partly specified)
ReNCell VM [1]; library: Spectrum
  neuronal differentiation score: inactive: 0
ReNCell VM [2]; library: Spectrum
  dopaminergic neuron differentiation score: inactive: 0

## CC(C)Oc1cccc(-n2c(CCc3c[nH]c4ccc(Br)cc34)nc3ccccc3c2=O)c1
ReNCell VM [1]; library: Tocriscreen
  neuronal differentiation score: inactive: 0
ReNCell VM [2]; library: Tocriscreen
  dopaminergic neuron differentiation score: inactive: 0

## O=C(O)c1cc(-c2ccc(F)cc2F)ccc1O
ReNCell VM [1]; library: Spectrum
  neuronal differentiation score: inactive: 0
ReNCell VM [2]; library: Spectrum
  dopaminergic neuron differentiation score: inactive: 0

## CN(Cc1cnc2nc(N)nc(N)c2n1)c1ccc(C(=O)N[C@@H](CCC(=O)O)C(=O)O)cc1 (racemic) [Amethopterin (R,S)]
ReNCell VM [1]; library: Prestwick
  neuronal differentiation score: inactive: 0
ReNCell VM [2]; library: Prestwick
  dopaminergic neuron differentiation score: inactive: 0

## Cc1[nH]c(/C=C2\C(=O)Nc3ccccc32)c(C)c1CCC(=O)O
ReNCell VM [1]; library: Tocriscreen
  neuronal differentiation score: inactive: 0
ReNCell VM [2]; library: Tocriscreen
  dopaminergic neuron differentiation score: inactive: 0

## C/C=C(/C(=C/C)c1ccc(O)cc1)c1ccc(O)cc1 [Dienestrol]
ReNCell VM [1]; library: Prestwick
  neuronal differentiation score: inactive: 0
ReNCell VM [2]; library: Prestwick
  dopaminergic neuron differentiation score: inactive: 0

## Cc1cc2c(s1)Nc1ccccc1N=C2N1CCN(C)CC1 [Olanzapine]
ReNCell VM [1]; library: Prestwick
  neuronal differentiation score: inactive: 0
ReNCell VM [2]; library: Prestwick
  dopaminergic neuron differentiation score: inactive: 0

## CC[C@H]1OC(=O)C[C@@H](O)[C@H](C)[C@@H](O[C@@H]2O[C@H](C)[C@@H](O[C@H]3C[C@@](C)(O)[C@@H](O)[C@H](C)O3)[C@H](N(C)C)[C@H]2O)[C@@H](CC=O)C[C@@H](C)C(=O)/C=C/C(C)=C/[C@@H]1CO[C@@H]1O[C@H](C)[C@@H](O)[C@@H](OC)[C@H]1OC [Tylosin]
ReNCell VM [1]; library: Prestwick
  neuronal differentiation score: inactive: 0
ReNCell VM [2]; library: Prestwick
  dopaminergic neuron differentiation score: inactive: 0

## OC[C@@H](O)[C@@H](O[C@@H]1O[C@H](CO)[C@H](O)[C@H](O)[C@H]1O)[C@H](O)[C@@H](O)CO
ReNCell VM [1]; library: Spectrum
  neuronal differentiation score: inactive: 0
ReNCell VM [2]; library: Spectrum
  dopaminergic neuron differentiation score: inactive: 0

## CC1(C)C=Cc2c(c3c(c4c(=O)c(-c5ccc(O)cc5)coc24)OC(C)(C)CC3)O1
ReNCell VM [1]; library: Spectrum
  neuronal differentiation score: inactive: 0
ReNCell VM [2]; library: Spectrum
  dopaminergic neuron differentiation score: inactive: 0

## C[C@@H]1CN(c2c(F)c(F)c3c(=O)c(C(=O)O)cn(C4CC4)c3c2F)C[C@H](C)N1
ReNCell VM [1]; library: Spectrum
  neuronal differentiation score: inactive: 0
ReNCell VM [2]; library: Spectrum
  dopaminergic neuron differentiation score: inactive: 0

## CCC(NC(C)C)C(O)c1ccc(O)c(O)c1 (stereo unspecified) [Isoetharine mesylate salt]
ReNCell VM [1]; library: Prestwick
  neuronal differentiation score: inactive: 0
ReNCell VM [2]; library: Prestwick
  dopaminergic neuron differentiation score: inactive: 0

## CC1(C)[C@@H](O)CC[C@]2(C)[C@H]3C(=O)C=C4[C@H]5C[C@@](C)(C(=O)O)CC[C@]5(C)CC[C@@]4(C)[C@]3(C)CC[C@@H]12 [18alpha-GLYCYRRHETINIC ACID]
ReNCell VM [1]; library: Spectrum
  neuronal differentiation score: inactive: 0
ReNCell VM [2]; library: Spectrum
  dopaminergic neuron differentiation score: inactive: 0

## CCCCC(=O)Oc1ccccc1C(=O)O
ReNCell VM [1]; library: Spectrum
  neuronal differentiation score: inactive: 0
ReNCell VM [2]; library: Spectrum
  dopaminergic neuron differentiation score: inactive: 0

## Cc1nc2[nH]c(=O)[nH]c(=O)c2[nH]1 [8-methylxanthine]
ReNCell VM [1]; library: Natural
  neuronal differentiation score: inactive: 0
ReNCell VM [2]; library: Natural
  dopaminergic neuron differentiation score: inactive: 0

## CC1(C)[C@H]2CC[C@]1(CS(=O)(=O)O)C(=O)C2=Cc1ccc(C=C2C(=O)[C@@]3(CS(=O)(=O)O)CC[C@@H]2C3(C)C)cc1
ReNCell VM [1]; library: Spectrum
  neuronal differentiation score: inactive: 0
ReNCell VM [2]; library: Spectrum
  dopaminergic neuron differentiation score: inactive: 0
